According to patent US12083124B2 (Incyte Corporation, priority 2019, dated 2024):
Some entries share one result that the patent states for a list of compounds.

Amino acid sequences for entries named in this document (tags omitted). Residues count along the entry.
UniProt P22607, 23-806: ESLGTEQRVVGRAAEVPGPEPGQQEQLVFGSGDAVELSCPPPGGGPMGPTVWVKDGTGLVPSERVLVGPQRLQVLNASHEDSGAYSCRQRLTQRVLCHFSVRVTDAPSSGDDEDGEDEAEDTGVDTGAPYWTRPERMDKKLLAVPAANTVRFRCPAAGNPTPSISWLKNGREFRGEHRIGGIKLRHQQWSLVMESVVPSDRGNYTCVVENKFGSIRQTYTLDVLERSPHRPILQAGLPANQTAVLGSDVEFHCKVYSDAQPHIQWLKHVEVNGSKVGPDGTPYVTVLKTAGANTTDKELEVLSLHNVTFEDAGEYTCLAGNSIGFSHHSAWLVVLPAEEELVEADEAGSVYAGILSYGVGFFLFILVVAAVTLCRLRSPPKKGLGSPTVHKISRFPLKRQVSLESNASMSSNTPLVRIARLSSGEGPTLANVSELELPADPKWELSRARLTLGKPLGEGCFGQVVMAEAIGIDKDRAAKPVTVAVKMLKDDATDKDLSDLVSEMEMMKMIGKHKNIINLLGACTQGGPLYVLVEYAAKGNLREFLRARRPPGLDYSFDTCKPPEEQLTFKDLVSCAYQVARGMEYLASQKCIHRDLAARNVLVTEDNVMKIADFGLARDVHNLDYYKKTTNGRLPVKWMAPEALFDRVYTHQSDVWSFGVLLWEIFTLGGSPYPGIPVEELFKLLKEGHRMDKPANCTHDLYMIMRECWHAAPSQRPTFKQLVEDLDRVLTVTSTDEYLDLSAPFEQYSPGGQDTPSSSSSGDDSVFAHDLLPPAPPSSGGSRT

Biological target: wild-type un-phosphorylated FGFR3 (Homo sapiens, UniProt P22607)
Experiment: FGFR Enzymatic Assay (FRET peptide phosphorylation), FGFR3
Conditions: in some embodiments

Row | Compound | inhibitory activity for FGFR3 over the inhibitory activity of the compounds of US2018/0072718 for FGFR3
1 | [2H]C([2H])([2H])c1cccc(-c2nc3c(-c4ccc(N5CCN(C)CC5)nc4)n[nH]c3cc2OC)c1C [Example 68, 6-Methoxy-5-(2-methyl-3-(methyl-d3)phenyl)-3-(6-(4-methylpiperazin-1-yl)pyridin-3-yl)-1H-pyrazolo[4,3-b]pyridine] | ≥ 10 fold
2 | COc1cc2[nH]nc(-c3cnn(C4CCN(C(C)=O)CC4)c3)c2nc1-c1cccc(C)c1C [Example 69, 1-(4-(4-(5-(2,3-Dimethylphenyl)-6-methoxy-1H-pyrazolo[4,3-b]pyridin-3-yl)-1H-pyrazol-1-yl)piperidin-1-yl)ethan-1-one] | ≥ 10 fold
3 | COC(=O)N1CCC(n2cc(-c3n[nH]c4cc(OC)c(-c5cccc(C)c5C)nc34)cn2)CC1 [Example 70, Methyl 4-(4-(5-(2,3-dimethylphenyl)-6-methoxy-1H-pyrazolo[4,3-b]pyridin-3-yl)-1H-pyrazol-1-yl)piperidine-1-carboxylate] | ≥ 10 fold
4 | COC(=O)N1CC(n2cc(-c3n[nH]c4cc(OC)c(-c5cccc(C)c5C)nc34)cn2)C1 [Example 71, Methyl 3-(4-(5-(2,3-dimethylphenyl)-6-methoxy-1H-pyrazolo[4,3-b]pyridin-3-yl)-1H-pyrazol-1-yl)azetidine-1-carboxylate] | ≥ 10 fold
5 | COc1cc2[nH]nc(-c3cnn(C4CN(C(=O)N(C)C)C4)c3)c2nc1-c1cccc(C)c1C [Example 72, 3-(4-(5-(2,3-Dimethylphenyl)-6-methoxy-1H-pyrazolo[4,3-b]pyridin-3-yl)-1H-pyrazol-1-yl)-N,N-dimethylazetidine-1-carboxamide] | ≥ 10 fold
6 | COc1cc2[nH]nc(-c3ccc(C4CCN(C(=O)[C@H](C)O)CC4)nc3)c2nc1-c1cccc(C)c1C [Example 77, (S)-1-(4-(5-(5-(2,3-Dimethylphenyl)-6-methoxy-1H-pyrazolo[4,3-b]pyridin-3-yl)pyridin-2-yl)piperidin-1-yl)-2-hydroxypropan-1-one] | ≥ 10 fold
7 | COc1cc2[nH]nc(-c3ccc(C4CCN(C(=O)CO)CC4)nc3)c2nc1-c1cccc(C)c1C [Example 78, 1-(4-(5-(5-(2,3-Dimethylphenyl)-6-methoxy-1H-pyrazolo[4,3-b]pyridin-3-yl)pyridin-2-yl)piperidin-1-yl)-2-hydroxyethan-1-one] | ≥ 10 fold
8 | COc1cc2[nH]nc(-c3ccc(C4CCC(C(=O)O)CC4)nc3)c2nc1-c1cccc(C)c1C (centres unmarked) [Example 79, 4-(5-(5-(2,3-Dimethylphenyl)-6-methoxy-1H-pyrazolo[4,3-b]pyridin-3-yl)pyridin-2-yl)cyclohexane-1-carboxylic acid] | ≥ 10 fold
9 | COc1cc2[nH]nc(-c3ccc(N4C[C@@H](F)[C@@H](N)C4)nc3)c2nc1-c1cccc(C)c1C [Example 80, (3S,4R)-1-(5-(5-(2,3-Dimethylphenyl)-6-methoxy-1H-pyrazolo[4,3-b]pyridin-3-yl)pyridin-2-yl)-4-fluoropyrrolidin-3-amine] | ≥ 10 fold
10 | COc1cc2[nH]nc(-c3ccc(C4CCN(C(=O)CO)CC4)nc3)c2nc1-c1cccc2c1CC(F)C2 (centres unmarked) [Example 82, 1-(4-(5-(5-(2-Fluoro-2,3-dihydro-1H-inden-4-yl)-6-methoxy-1H-pyrazolo[4,3-b]pyridin-3-yl)pyridin-2-yl)piperidin-1-yl)-2-hydroxyethan-1-one] | ≥ 10 fold
11 | COc1cc2[nH]nc(-c3ccc(N4CCN5C[C@H](O)C[C@H]5C4)nc3)c2nc1-c1cccc2c1CC(F)C2 (stereo partly drawn) [Example 83, (7R,8aS)-2-(5-(5-(2-Fluoro-2,3-dihydro-1H-inden-4-yl)-6-methoxy-1H-pyrazolo[4,3-b]pyridin-3-yl)pyridin-2-yl)octahydropyrrolo[1,2-a]pyrazin-7-ol] | ≥ 10 fold
12 | COc1cc2[nH]nc(-c3cnn(C)c3)c2nc1-c1cccc2c1CC(F)C2 (centres unmarked) [Example 84, 5-(2-Fluoro-2,3-dihydro-1H-inden-4-yl)-6-methoxy-3-(1-methyl-1H-pyrazol-4-yl)-1H-pyrazolo[4,3-b]pyridine] | ≥ 10 fold
13 | COc1cc2[nH]nc(-c3ccc(N4CCN5C[C@@H](O)C[C@@H]5C4)nc3)c2nc1-c1cccc(C)c1C [Example 85, (7S,8aR)-2-(5-(5-(2,3-Dimethylphenyl)-6-methoxy-1H-pyrazolo[4,3-b]pyridin-3-yl)pyridin-2-yl)octahydropyrrolo[1,2-a]pyrazin-7-ol] | ≥ 10 fold
14 | COc1cc2[nH]nc(-c3ccc(N4CCS(=N)(=O)CC4)nc3)c2nc1-c1cccc(C)c1C [Example 86, 4-(5-(5-(2,3-Dimethylphenyl)-6-methoxy-1H-pyrazolo[4,3-b]pyridin-3-yl)pyridin-2-yl)-1-imino-1λ^6-thiomorpholine 1-oxide] | ≥ 10 fold
15 | COc1cc2[nH]nc(-c3ccc(N4CCN5C[C@H](O)C[C@H]5C4)nc3)c2nc1-c1cccc(C)c1C [Example 87, (7R,8aS)-2-(5-(5-(2,3-Dimethylphenyl)-6-methoxy-1H-pyrazolo[4,3-b]pyridin-3-yl)pyridin-2-yl)octahydropyrrolo[1,2-a]pyrazin-7-ol] | ≥ 10 fold
16 | COc1cc2[nH]nc(-c3ccc(N4CC[C@H](N(C)C(=O)CO)C4)nc3)c2nc1-c1cccc(C)c1C [Example 88, (S)-N-(1-(5-(5-(2,3-Dimethylphenyl)-6-methoxy-1H-pyrazolo[4,3-b]pyridin-3-yl)pyridin-2-yl)pyrrolidin-3-yl)-2-hydroxy-N-methylacetamide] | ≥ 10 fold
17 | COc1cc2[nH]nc(-c3ccc(N4CCN(CCO)CC4)nc3)c2nc1-c1cccc(CC#N)c1C [Example 89, 2-(3-(3-(6-(4-(2-Hydroxyethyl)piperazin-1-yl)pyridin-3-yl)-6-methoxy-1H-pyrazolo[4,3-b]pyridin-5-yl)-2-methylphenyl)acetonitrile] | ≥ 10 fold
18 | COc1cc2[nH]nc(-c3ccc(N4CCN5C[C@H](O)C[C@H]5C4)nc3)c2nc1-c1cccc(OC)c1C [Example 90, (7R,8aS)-2-(5-(6-Methoxy-5-(3-methoxy-2-methylphenyl)-1H-pyrazolo[4,3-b]pyridin-3-yl)pyridin-2-yl)octahydropyrrolo[1,2-a]pyrazin-7-ol] | ≥ 10 fold
19 | COc1cc2[nH]nc(-c3ccc(N4CCN5C[C@H](O)C[C@H]5C4)nc3)c2nc1-c1cccc2c1OCCO2 [Example 91, (7R,8aS)-2-(5-(5-(2,3-Dihydrobenzo[b][1,4]dioxin-5-yl)-6-methoxy-1H-pyrazolo[4,3-b]pyridin-3-yl)pyridin-2-yl)octahydropyrrolo[1,2-a]pyrazin-7-ol] | ≥ 10 fold
20 | COc1cc2[nH]nc(-c3ccc(N4CCN5C[C@H](O)C[C@H]5C4)nc3)c2nc1-c1ccccc1C1CC1 [Example 92, (7R,8aS)-2-(5-(5-(2-Cyclopropylphenyl)-6-methoxy-1H-pyrazolo[4,3-b]pyridin-3-yl)pyridin-2-yl)octahydropyrrolo[1,2-a]pyrazin-7-ol] | ≥ 10 fold
21 | COc1cc2[nH]nc(-c3ccc(N4CCN5C[C@H](O)C[C@H]5C4)nc3)c2nc1-c1cccc2c1CCCO2 [Example 93, (7R,8aS)-2-(5-(5-(Chroman-5-yl)-6-methoxy-1H-pyrazolo[4,3-b]pyridin-3-yl)pyridin-2-yl)octahydropyrrolo[1,2-a]pyrazin-7-ol] | ≥ 10 fold
22 | COc1cc2[nH]nc(-c3ccc(N4CCN5C[C@H](O)C[C@H]5C4)nc3)c2nc1-c1cccc(C)c1F [Example 94, (7R,8aS)-2-(5-(5-(2-Fluoro-3-methylphenyl)-6-methoxy-1H-pyrazolo[4,3-b]pyridin-3-yl)pyridin-2-yl)octahydropyrrolo[1,2-a]pyrazin-7-ol] | ≥ 10 fold
23 | COCCOc1ccc(-c2n[nH]c3cc(OC)c(-c4cccc5c4CC(O)C5)nc23)cn1 (centres unmarked) [Example 95, 4-(6-Methoxy-3-(6-(2-methoxyethoxy)pyridin-3-yl)-1H-pyrazolo[4,3-b]pyridin-5-yl)-2,3-dihydro-1H-inden-2-ol] | ≥ 10 fold
24 | COc1cc2[nH]nc(-c3ccc(OC4CCOCC4)nc3)c2nc1-c1cccc2c1CC(O)C2 (centres unmarked) [Example 96, 4-(6-Methoxy-3-(6-((tetrahydro-2H-pyran-4-yl)oxy)pyridin-3-yl)-1H-pyrazolo[4,3-b]pyridin-5-yl)-2,3-dihydro-1H-inden-2-ol] | ≥ 10 fold
25 | COc1cc2[nH]nc(-c3ccc(C4CC4)nc3)c2nc1-c1cccc2c1CC(O)C2 (centres unmarked) [Example 97, 4-(3-(6-Cyclopropylpyridin-3-yl)-6-methoxy-1H-pyrazolo[4,3-b]pyridin-5-yl)-2,3-dihydro-1H-inden-2-ol] | ≥ 10 fold
26 | COc1cc2[nH]nc(-c3ccc(N4CC(N(C)C(=O)CO)C4)nc3)c2nc1-c1cccc(C)c1C [Example 98, N-(1-(5-(5-(2,3-Dimethylphenyl)-6-methoxy-1H-pyrazolo[4,3-b]pyridin-3-yl)pyridin-2-yl)azetidin-3-yl)-2-hydroxy-N-methylacetamide] | ≥ 10 fold
